Data: paper PMC3131385, “TBP Binding-Induced Folding of the Glucocorticoid Receptor AF1 Domain Facilitates Its Interaction with Steroid Receptor Coactivator-1” (PLoS ONE, 2011)
No constants are given. Whether binding was seen depends on the method and setting. For some assays here: Binding seen in cells or lysates may run through a third protein. Some results given as binding are weak or reduced against the parent protein; the word gives no strength.

Sequences of proteins named here, by UniProt entry; tags and fusion partners are left off. Residues count along the entry.
UniProt P20226, residues 159-339: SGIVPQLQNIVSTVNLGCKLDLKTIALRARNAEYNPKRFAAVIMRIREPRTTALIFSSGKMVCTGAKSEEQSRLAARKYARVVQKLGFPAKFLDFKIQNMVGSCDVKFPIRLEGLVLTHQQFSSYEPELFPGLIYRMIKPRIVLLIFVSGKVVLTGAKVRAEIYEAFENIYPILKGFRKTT
UniProt Q15788: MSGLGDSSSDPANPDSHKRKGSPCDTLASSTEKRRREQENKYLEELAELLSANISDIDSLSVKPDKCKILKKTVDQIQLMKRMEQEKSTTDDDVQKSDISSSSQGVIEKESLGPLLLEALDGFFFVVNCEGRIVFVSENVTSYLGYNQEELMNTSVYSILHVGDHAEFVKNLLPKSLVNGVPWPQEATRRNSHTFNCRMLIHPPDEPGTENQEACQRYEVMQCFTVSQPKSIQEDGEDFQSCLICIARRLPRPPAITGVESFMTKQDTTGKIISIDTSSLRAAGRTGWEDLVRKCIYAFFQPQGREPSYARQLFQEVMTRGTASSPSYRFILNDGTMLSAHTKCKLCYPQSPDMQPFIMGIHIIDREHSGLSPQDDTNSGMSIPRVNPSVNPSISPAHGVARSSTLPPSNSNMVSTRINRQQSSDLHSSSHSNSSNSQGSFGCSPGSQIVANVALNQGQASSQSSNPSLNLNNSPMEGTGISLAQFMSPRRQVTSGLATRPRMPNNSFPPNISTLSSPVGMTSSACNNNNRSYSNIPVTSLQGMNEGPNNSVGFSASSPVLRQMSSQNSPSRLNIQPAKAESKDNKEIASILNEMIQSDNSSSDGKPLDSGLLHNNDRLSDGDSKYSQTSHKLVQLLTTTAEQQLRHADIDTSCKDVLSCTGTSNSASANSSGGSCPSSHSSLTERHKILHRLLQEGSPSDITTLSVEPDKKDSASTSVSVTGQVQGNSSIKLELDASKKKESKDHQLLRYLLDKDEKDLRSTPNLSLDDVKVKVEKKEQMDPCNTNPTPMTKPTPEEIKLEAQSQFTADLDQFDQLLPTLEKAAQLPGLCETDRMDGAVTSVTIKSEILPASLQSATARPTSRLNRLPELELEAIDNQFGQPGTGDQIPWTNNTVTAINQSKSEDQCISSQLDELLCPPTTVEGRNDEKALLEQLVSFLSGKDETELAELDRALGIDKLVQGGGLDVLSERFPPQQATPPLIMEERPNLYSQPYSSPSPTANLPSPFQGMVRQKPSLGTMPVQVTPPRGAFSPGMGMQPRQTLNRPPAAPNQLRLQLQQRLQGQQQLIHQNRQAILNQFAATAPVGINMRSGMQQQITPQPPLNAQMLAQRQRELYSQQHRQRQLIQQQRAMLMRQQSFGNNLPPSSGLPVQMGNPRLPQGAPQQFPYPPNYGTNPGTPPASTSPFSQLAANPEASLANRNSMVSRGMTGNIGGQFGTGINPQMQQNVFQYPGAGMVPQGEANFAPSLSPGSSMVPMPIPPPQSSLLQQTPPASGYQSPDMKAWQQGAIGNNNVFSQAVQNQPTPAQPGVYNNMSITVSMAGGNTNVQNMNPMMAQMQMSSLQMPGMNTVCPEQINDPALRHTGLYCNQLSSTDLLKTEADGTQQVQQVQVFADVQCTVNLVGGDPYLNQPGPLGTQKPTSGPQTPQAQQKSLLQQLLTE
UniProt P04150, residues 77-262: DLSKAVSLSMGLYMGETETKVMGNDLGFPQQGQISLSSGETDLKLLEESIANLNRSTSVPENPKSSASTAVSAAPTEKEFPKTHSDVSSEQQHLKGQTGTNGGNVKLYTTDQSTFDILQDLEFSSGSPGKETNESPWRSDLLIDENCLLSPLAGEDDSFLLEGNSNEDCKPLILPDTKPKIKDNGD

Assays:
[1] = target: TBPC, 181 C-terminal residues of human TATA box binding protein (TBP) (human) (UniProt P20226); experiment: SPR; single cycle kinetic assay, AF1 as analyte; data not shown; both purified
[2] = target: steroid receptor coactivator-1 (SRC-1) (human (endogenous in HeLa)) (UniProt Q15788); experiment: co-IP; SRC-1 antibody on protein A/G-agarose beads; HeLa nuclear extract (0.5 mg total protein) mixed with 10 µg purified AF1 and/or TBPC, 4°C; blot with GR AF1 antibody; only the binder purified

- binding [1]: binds
- binding [2]: binds weakly
Substance: glucocorticoid receptor (GR) N-terminal activation function domain AF1 (from UniProt P04150 77-262) (domain or fragment)
